# Assay results: PubChem BioAssay AID1461 (National Center for Advancing Translational Sciences (NCATS), 2008)
# Protein sequences, listed by entry. Tags and fused reporters are not part of them. Lines headed by an entry give the natural chain unless they say otherwise; changes in a name come on top.
# UniProt Q6W5P4: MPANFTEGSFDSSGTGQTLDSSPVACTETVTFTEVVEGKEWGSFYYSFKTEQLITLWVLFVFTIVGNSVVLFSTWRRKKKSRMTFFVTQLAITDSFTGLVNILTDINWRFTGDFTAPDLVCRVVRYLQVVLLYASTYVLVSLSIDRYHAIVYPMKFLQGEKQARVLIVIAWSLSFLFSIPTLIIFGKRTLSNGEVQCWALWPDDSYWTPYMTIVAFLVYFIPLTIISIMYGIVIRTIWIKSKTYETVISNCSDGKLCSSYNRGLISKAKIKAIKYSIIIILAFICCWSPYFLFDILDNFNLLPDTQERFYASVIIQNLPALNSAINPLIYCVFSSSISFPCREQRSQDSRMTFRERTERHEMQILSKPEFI
# Only a part is listed here, and it is no random draw. Results filed as inconclusive are left out. Calls of active or inactive are those of the source. Calls follow the shape of the dose curve; as a rule, active = well fitted inhibition curve with a large enough effect; inconclusive = small, poorly fitted or top-dose-only effect, or effect the other way; inactive = no such curve, though single readings can be large or run the other way.
# Target: Neuropeptide S receptor (Homo sapiens) (UniProt Q6W5P4)
# Assay: qHTS Assay for Antagonists of the Neuropeptide S Receptor: cAMP Signal Transduction; also: nearly all actives have a fitted effect of over 50% in size
# Conditions: CHO-NPSR cells, cAMP TR-FRET, antagonist mode
# Description: NIH Chemical Genomics Center [NCGC] NIH Molecular Libraries Probe Production centers Network [MLPCN] MLPCN Grant: X01-DA026210-01 Assay Submitter (PI): Heilig, Markus Alexander NCGC Assay Overview: Neuropeptide S receptor (NPSR), previously known as GPR154, is a recently de-orphanized G protein coupled receptor. Its endogenous ligand is the 20 amino acids peptide Neuropeptide S (NPS). […] NPS and its receptor are found in various tissues. Specifically they are highly expressed in brain areas that have been implicated in modulation of arousal, stress and anxiety. Central administration of NPS in mice produces an unusual profile of activity by inducing wakefulness and arousal, while at the same time suppressing anxiety. Therefore, NPSR may represent a novel drug target for the treatment of sleep and anxiety disorders. […] This change in intracellular cAMP level can be detected by a homogeneous LANCE cAMP assay based on the TR-FRET (time resolved fluorescence resonance energy transfer) between a europium-labeled cAMP tracer complex and a cAMP-specific antibody labeled with Alexa Fluor 647. […] Both emission signals from the FRET donor (620 nm) and the acceptor (665 nm) can be detected by a plate reader in the TRF mode. Expression of result in fluorescence ratio (665 nm/620 nm) helps to normalize differences due to cell density and reagent dispensing. […]
# Potency is read from the fitted curve at half-maximal effect.
row,Compound,Potency
1,CN(C)c1ccc2nc3ccc(=[N+](C)C)cc-3sc2c1,active: 1580 nM
